Where a sequence shows no end group, the ends are not given.

A short description of this data set: general procedure: Fmoc solid-phase peptide synthesis; 2C1-Trt Resin; HOBT/DIC. The settings on record: whole synthesis, scale 10.0 g resin, hydrochloride (conjugates).

CRPARPAR came in with an isolated mass of 6.1 g.

The record behind these values is US10869863B2 (priority 2016, dated 2020).
